From the supplement of paper PMC7125110
± gives the standard error. Many of these values have a large error.

B1: glmS ribozyme (parent)
chain: AUAAAAGCGCCAGAACUACAGAAAUGUAGUUGACGAGGAGGAGGUUUAUCGAAUUUUCGGCGGAUGCCUCCAAA

Variants of: B1
Test: self-cleavage kobs at 10000 uM GlcN6P; higher = faster cleavage; RNA array
Conditions: with glucosamine-6-phosphate
Summary of the method: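 Tiles of sequenced MiSeq chips were imaged over ~14 h at 37 °C. On them, barcoded ribozyme variants had been transcribed in situ by E. coli RNA polymerase and were tracked via a hybridised Cy3 probe while glucosamine-6-phosphate (40 μM to 10 mM) in HEPES/KCl/Mg(OAc)2 buffer flowed in. Per-tile medians, normalised to baseline and to non-cleaving reference variants, were fit to one- or two-exponential decays for kobs, and weighted Michaelis–Menten fits gave kcat and KM.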

Row | Variant | self-cleavage kobs at 10000 uM GlcN6P [s⁻¹]
1 | C50A U69G | 1.89e-05 ± 1.1e-05
2 | U45A C61G C71G | 2.15e-05 ± 2e-05
3 | C58A C70G C71A | 1.98e-05 ± 1.7e-05
4 | U49A U54G | 2.88e-05 ± 2.3e-05
5 | U56A G59U | 2.08e-05 ± 1.4e-05
6 | A48C A53G C71G | 1.56e-05 ± 1.3e-05
7 | A39U A42C C67G | 3.52e-05 ± 2.2e-05
8 | G40A C67G | 2.64e-05 ± 1.5e-05
9 | U45A C61U | 2.03e-05 ± 1.9e-05
10 | U45G C58U | 2.07e-05 ± 1.9e-05
11 | U54C C61U C68G U69G | 3.94e-05 ± 2.8e-05
12 | U45C C58A | 1.73e-05 ± 1.7e-05
13 | G59A A64G G66A | 2.5e-05 ± 2.2e-05
14 | G38U C70U C71G | 2.85e-05 ± 1.6e-05
15 | U54A C68A | 1.69e-05 ± 1.2e-05
16 | C61U A64G | 2.05e-05 ± 1.3e-05
17 | U56C C71G | 2.26e-05 ± 1.4e-05
18 | G38C C50U U69G C70G | 3.45e-05 ± 2.4e-05
19 | C50G U54A | 2e-05 ± 1.1e-05
20 | G59A U65G C67G | 1.83e-05 ± 1.7e-05
21 | A48U A53C | 2.05e-05 ± 1.2e-05
22 | A48G C71A | 1.83e-05 ± 1e-05

Another view of some results above:
Row,Variant,self-cleavage kobs at 10000 uM GlcN6P [s⁻¹]
16,C61U A64G,2.05e-05 ± 1.3e-05
17,U56C C71G,2.26e-05 ± 1.4e-05
